# Test results taken from patent US20260315505A1, “COMBINED INHIBITION OF TYROSINE PHOSPHATASES TCPTP AND PTP1B AND PD-1 BLOCKAGE IMMUNOTHERAPY IN THE TREATMENT OF CANCER” (Kanyr Pharma Inc., priority 2022, published 2026).
# At least one compound was matched to its structure with a doubt left.
# Key:
# Assay type in all cases: in vivo, mouse
# STAT3 = experiment: immunoblot of Stat3 phosphorylation in PBMC after intraperitoneal injection; settings: C57BL/6 mice, 25, 50, 100 and 200 mg/kg, 2 hours after i.p.
# [1] = test system: B16F10 melanoma in C57BL/6 mice; experiment: B16F10 melanoma tumor growth and survival
# STAT1 = experiment: immunoblot of Stat1 phosphorylation in PBMC after intraperitoneal injection; settings: C57BL/6 mice, 25, 50, 100 and 200 mg/kg, 2 hours after i.p.
structure (smiles),measurement,setting,value
N#CCc1ccc2cc(Br)c(C(F)(F)P(=O)(O)O)cc2c1 [Inh2],tyrosine phosphorylation of STAT3,STAT3,increase
same,synergy with anti-PD-1 antibodies in restricting tumor growth,[1]; combined with anti-PD-1 mAb,synergize with anti-PD-1 antibodies to restrict B16F10 melanoma tumor growth in vivo
same,"significance of effect on tumor growth, single treatment","[1]; intratumoral, alone",not significant
same,"tumor growth, single treatment","[1]; intratumoral, alone",slowed tumoral growth
same,tyrosine phosphorylation of STAT1,STAT1,increase
